{"sequences": {"note": "Chains of the proteins cited; added tags and fusions are not shown.", "UniProt P13202": "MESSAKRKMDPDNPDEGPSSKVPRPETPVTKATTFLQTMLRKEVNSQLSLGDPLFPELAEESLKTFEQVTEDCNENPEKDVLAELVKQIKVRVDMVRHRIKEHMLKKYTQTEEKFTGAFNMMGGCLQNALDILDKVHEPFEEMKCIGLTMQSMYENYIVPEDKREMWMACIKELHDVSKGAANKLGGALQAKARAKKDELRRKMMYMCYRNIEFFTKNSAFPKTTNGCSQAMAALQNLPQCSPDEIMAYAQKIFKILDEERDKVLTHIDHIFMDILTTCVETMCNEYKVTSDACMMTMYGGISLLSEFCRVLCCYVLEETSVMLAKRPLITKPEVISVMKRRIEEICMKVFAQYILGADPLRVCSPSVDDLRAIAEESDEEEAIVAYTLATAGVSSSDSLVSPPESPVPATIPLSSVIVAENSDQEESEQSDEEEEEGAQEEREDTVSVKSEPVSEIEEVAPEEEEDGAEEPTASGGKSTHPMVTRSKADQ", "UniProt Q06609": "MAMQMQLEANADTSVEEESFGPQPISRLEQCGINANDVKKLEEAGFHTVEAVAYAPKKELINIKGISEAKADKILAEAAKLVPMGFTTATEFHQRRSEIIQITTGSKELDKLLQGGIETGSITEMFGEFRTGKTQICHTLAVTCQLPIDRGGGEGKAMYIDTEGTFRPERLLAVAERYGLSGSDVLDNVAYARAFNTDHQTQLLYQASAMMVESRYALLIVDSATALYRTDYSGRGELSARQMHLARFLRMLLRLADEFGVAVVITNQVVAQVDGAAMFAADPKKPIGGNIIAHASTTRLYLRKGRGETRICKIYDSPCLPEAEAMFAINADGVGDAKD"}, "source": "paper PMC3970133", "biological_target": "GST-IE72 (pGEX72), HCMV IE1-72 (human cytomegalovirus (HCMV)) (UniProt P13202)", "experiment": "pull-down; only the target purified", "note": "Results are given in words; binding and its absence hold for the method and conditions named. In cells and extracts the contact can be indirect. Some entries that bind do so weakly or less than the wild type.", "data": [{"substance": "Rad51 (from UniProt Q06609 1-339)", "values": [{"measurement": "binding", "result": "binds"}]}]}
